± gives the standard deviation of the averaged measurements. The entries are a selection whose mix differs from that of the whole data set. Most entries show no effect beyond the scatter of the controls.
Each target was assayed with Nc1ncnc2c1ncn2[C@@H]1O[C@H](COP(=O)(O)OP(=O)(O)NP(=O)(O)O)[C@@H](O)[C@H]1O [adenylyl imidodiphosphate] (assay: NP40-soluble protein abundance relative to vehicle (solubility fold change) (ratio); higher = more soluble protein in presence of AMP-PNP). Settings: concentration: 0.1mM.
In short: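 Values are fold changes against the detergent-processed vehicle, based on vsn-normalised intensities. Jurkat crude lysate was treated at eight concentrations from 0.1 to 10 mM (10 min at room temperature, then 3 min at 37 °C), solubilised with 0.8% NP40 and benzonase, ultracentrifuged and analysed by TMT-labelled LC-MS/MS over three independent experiments.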

Chains of the proteins cited; added tags and fusions are not shown. Lines headed by an entry give the natural chain unless they say otherwise; changes in a name come on top.
UniProt P18887, whole entry: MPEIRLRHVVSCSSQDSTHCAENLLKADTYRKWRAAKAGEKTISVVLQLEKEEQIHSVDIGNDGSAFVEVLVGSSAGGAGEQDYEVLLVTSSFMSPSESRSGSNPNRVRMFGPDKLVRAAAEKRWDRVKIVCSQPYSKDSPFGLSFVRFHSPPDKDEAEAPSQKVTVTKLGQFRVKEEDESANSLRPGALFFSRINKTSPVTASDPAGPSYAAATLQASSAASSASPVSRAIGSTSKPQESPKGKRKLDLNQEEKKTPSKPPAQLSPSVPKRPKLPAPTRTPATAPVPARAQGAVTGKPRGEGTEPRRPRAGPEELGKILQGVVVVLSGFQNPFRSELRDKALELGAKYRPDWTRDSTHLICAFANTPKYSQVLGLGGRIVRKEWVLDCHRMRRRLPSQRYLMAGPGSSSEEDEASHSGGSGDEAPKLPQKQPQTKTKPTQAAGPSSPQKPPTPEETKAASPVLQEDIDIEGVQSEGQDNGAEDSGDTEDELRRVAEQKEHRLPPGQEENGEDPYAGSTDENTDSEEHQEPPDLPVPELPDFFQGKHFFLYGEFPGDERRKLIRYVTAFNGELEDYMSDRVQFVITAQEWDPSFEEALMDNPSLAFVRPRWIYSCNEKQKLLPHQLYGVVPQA
UniProt Q9UGN5: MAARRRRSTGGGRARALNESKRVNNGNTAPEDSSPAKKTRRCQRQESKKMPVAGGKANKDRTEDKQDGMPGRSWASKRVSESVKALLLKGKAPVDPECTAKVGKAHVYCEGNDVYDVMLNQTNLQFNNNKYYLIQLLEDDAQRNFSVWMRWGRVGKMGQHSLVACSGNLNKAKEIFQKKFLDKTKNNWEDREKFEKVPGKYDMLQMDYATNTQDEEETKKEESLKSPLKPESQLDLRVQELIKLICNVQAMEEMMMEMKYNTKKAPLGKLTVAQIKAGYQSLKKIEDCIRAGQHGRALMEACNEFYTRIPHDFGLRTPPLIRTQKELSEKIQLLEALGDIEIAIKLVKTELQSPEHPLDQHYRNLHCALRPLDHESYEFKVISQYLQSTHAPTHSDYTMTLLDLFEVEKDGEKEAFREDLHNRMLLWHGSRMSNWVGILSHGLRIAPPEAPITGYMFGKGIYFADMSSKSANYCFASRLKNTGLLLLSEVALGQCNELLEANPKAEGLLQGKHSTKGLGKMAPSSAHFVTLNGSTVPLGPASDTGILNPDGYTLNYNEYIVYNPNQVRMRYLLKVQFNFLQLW
UniProt Q6NXE6: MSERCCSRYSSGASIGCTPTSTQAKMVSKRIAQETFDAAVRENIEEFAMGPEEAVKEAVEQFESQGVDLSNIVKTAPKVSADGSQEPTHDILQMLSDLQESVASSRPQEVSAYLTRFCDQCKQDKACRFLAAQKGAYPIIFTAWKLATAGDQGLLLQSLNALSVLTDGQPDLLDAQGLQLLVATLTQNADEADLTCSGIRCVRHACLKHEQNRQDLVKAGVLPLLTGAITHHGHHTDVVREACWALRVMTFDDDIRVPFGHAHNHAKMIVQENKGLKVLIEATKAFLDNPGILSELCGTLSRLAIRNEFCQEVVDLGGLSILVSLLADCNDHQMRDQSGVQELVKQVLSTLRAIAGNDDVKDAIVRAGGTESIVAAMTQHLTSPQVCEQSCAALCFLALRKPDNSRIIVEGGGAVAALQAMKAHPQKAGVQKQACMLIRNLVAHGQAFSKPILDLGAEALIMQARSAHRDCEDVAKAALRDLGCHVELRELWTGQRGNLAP
UniProt P08397: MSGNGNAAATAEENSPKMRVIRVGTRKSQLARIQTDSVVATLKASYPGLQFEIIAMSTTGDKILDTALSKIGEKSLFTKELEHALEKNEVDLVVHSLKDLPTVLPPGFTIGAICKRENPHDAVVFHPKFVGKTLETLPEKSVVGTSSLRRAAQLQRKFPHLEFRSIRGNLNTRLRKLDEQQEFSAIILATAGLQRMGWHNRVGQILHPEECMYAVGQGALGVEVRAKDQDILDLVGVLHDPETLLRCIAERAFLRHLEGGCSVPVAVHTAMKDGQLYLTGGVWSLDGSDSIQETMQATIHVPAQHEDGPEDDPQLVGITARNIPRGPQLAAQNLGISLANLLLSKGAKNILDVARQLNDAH
UniProt Q9HC77: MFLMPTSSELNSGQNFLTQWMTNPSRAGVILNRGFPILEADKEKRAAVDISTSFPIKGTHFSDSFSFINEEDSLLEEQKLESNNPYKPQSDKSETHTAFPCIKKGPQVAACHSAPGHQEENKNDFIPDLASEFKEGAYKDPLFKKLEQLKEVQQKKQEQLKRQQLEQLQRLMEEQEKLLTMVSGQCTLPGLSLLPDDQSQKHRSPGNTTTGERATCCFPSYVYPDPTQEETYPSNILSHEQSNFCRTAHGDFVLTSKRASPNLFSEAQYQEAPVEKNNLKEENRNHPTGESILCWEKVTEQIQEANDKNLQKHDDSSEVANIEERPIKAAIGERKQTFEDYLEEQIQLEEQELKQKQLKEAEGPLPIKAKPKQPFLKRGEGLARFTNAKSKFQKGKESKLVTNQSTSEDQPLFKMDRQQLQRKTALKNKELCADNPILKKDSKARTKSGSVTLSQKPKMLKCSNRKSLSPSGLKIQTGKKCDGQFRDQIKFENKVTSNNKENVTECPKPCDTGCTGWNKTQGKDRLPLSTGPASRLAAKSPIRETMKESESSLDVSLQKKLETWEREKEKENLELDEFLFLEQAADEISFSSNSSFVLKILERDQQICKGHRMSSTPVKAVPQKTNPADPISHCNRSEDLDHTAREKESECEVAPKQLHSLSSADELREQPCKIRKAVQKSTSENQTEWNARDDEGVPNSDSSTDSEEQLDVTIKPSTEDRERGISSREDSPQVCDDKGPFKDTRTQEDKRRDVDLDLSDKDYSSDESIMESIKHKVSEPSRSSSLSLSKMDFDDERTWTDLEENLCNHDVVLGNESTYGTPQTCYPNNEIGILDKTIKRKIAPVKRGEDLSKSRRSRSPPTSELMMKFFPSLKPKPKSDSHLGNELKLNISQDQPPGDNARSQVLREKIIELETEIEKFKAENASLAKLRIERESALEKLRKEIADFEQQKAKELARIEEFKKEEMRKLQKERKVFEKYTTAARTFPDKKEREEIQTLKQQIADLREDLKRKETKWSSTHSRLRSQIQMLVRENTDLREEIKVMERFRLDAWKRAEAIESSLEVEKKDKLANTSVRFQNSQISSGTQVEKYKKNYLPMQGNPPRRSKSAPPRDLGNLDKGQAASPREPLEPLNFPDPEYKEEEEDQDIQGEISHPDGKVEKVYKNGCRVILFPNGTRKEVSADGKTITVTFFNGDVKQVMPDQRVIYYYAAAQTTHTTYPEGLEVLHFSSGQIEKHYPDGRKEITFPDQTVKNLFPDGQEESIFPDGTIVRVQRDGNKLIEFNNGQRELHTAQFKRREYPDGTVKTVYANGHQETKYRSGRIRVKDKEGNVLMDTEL
UniProt Q9NQ89: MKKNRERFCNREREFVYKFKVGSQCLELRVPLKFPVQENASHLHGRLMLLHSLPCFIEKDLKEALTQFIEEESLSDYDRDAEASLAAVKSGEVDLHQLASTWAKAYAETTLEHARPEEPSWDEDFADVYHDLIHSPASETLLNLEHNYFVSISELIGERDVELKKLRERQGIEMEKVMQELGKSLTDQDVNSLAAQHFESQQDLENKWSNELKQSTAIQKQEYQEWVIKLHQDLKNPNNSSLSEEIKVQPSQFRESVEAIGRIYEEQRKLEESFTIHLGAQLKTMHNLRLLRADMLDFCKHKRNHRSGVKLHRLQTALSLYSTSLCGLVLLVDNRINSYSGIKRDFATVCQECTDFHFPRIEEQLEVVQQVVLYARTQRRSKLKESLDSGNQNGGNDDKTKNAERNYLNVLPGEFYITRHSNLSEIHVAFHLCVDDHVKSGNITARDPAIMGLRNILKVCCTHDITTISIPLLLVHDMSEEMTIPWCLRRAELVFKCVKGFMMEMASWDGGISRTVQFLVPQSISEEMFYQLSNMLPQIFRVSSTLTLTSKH
UniProt Q9UBU9: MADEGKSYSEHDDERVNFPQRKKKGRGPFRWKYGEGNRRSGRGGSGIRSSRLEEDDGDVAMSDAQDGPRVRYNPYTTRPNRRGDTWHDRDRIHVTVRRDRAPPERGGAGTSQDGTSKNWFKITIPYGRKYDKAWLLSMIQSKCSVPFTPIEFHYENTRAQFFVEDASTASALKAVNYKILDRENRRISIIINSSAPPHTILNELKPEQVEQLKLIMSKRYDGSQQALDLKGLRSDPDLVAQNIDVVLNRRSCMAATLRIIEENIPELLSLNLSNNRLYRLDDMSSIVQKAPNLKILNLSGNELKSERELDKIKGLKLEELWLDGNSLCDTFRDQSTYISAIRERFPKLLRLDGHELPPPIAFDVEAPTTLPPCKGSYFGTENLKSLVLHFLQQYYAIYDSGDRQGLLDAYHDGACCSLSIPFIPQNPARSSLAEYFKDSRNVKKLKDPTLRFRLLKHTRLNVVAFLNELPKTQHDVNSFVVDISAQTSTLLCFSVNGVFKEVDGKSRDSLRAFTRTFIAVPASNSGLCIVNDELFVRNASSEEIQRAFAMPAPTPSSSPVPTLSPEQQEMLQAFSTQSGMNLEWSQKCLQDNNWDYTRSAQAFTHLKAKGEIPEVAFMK
UniProt O00217, whole entry: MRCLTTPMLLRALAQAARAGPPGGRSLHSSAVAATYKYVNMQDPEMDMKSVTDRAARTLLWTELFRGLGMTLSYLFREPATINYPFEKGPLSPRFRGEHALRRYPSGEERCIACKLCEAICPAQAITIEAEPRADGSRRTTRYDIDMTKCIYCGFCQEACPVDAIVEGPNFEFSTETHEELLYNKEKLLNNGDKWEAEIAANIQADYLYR
UniProt O43572: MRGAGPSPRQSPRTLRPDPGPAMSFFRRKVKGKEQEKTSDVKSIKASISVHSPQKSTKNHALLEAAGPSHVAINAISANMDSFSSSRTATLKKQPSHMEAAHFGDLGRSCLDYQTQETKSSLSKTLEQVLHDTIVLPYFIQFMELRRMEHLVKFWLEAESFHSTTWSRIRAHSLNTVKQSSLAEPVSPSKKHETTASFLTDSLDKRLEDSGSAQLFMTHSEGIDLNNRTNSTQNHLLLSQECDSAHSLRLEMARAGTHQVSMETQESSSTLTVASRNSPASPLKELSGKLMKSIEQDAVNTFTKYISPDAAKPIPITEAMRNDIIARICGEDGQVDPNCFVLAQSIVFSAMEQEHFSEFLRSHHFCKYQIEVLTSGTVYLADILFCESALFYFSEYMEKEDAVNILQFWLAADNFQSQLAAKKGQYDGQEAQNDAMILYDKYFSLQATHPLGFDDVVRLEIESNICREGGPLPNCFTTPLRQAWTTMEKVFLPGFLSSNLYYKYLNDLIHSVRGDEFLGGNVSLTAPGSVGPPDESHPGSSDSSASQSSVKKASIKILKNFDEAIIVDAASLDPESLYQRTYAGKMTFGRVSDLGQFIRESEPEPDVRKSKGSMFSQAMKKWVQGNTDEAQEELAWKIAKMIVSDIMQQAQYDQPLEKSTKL
UniProt P14621: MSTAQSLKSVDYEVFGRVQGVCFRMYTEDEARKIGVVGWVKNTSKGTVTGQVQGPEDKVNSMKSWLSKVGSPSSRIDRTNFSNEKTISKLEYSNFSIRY
UniProt Q13510, whole entry: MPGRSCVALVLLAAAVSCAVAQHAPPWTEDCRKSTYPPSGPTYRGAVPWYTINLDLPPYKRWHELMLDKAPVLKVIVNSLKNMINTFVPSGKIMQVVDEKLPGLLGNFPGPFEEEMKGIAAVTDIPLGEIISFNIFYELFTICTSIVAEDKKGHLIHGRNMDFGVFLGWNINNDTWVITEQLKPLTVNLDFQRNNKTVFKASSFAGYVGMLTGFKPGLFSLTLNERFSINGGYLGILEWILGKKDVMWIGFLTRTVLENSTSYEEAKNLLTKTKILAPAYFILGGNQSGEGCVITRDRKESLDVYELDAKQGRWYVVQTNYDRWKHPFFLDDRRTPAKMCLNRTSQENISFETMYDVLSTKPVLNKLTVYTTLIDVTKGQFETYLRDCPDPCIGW
UniProt Q9HB07: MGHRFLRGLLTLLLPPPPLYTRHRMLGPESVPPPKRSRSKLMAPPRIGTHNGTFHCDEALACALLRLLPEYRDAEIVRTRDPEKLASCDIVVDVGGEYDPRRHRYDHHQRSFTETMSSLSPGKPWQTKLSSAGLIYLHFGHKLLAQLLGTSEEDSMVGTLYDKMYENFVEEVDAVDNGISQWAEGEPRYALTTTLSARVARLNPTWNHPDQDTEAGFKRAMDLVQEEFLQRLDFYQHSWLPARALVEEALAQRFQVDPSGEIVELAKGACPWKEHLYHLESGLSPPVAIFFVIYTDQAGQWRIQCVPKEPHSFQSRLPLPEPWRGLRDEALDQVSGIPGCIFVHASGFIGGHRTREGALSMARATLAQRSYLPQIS
UniProt P61916: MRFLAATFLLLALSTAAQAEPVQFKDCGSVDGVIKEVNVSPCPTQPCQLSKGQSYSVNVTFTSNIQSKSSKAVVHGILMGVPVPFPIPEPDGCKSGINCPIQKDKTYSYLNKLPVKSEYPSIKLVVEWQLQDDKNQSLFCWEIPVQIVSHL

Target	NP40-soluble protein abundance
F5H8D7 and related entries (UniProt P18887)	0.956 ± 0.029
G3V167 and related entries (UniProt Q9UGN5)	0.981 ± 0.024
F8VX04 and related entries (UniProt Q9H2H9)	1.02 ± 0.13
F5H5D3 and related entries (UniProt Q9BQE3)	0.978 ± 0.055
F5H3X1 and related entries (UniProt Q6NXE6)	1.03 ± 0.046
E7EUU4 and related entries (UniProt Q04637)	1.03 ± 0.031
F8W9X7 and related entries (UniProt Q567U6)	0.98 ± 0.017
F5H226 and related entries (UniProt P08397)	1.02 ± 0.028
E7ET07 and related entries (UniProt Q9NXR8)	1.01 ± 0.014
E9PJD7 and related entries (UniProt P0DTL6)	0.99 ± 0.025
E5RI98 and related entries (UniProt P06748)	0.96 ± 0.034
E7ESL0 and related entries (UniProt Q9NWU5)	1.07 ± 0.079
F6S7C4 and related entries (UniProt Q8NEM7)	1.003 ± 0.0029
F5H8H2 and related entries (UniProt Q03426)	1.01 ± 0.025
E9PHM2 and related entries (UniProt Q15031)	1.01 ± 0.019
F8WA39 and related entries (UniProt Q13613)	1.04 ± 0.038
F6VUX8 and related entries (UniProt Q9HC77)	1.009 ± 0.0092
F5GXX6 and related entries (UniProt Q9NQ89)	0.9466 ± 0.00096
F5H1F7 and related entries (UniProt P29375)	0.9995 ± 0.0079

Target	NP40-soluble protein abundance
F8W1T6 and related entries (UniProt Q15434)	0.9791 ± 0.0071
E9PF18 and related entries (UniProt Q16836)	0.998 ± 0.039
F5H5U2 and related entries (UniProt Q8NHQ9)	1.02 ± 0.044
E9PIN3 and related entries (UniProt Q9UBU9)	0.987 ± 0.017
F8VQE1 and related entries (UniProt Q9UHB6)	1.04 ± 0.022
E7EX90 and related entries (UniProt Q14203)	0.997 ± 0.027
E9PPW7 and related entries (UniProt O00217)	0.995 ± 0.011
F2Z2U4 and related entries (UniProt Q9Y4A5)	1.03 ± 0.046
F2Z388 and related entries (UniProt P42766)	1.017 ± 0.0072
E7EMD6 and related entries (UniProt O43572)	0.987 ± 0.028
E7ETU7 and related entries (UniProt P09001)	1.06 ± 0.058
E9PF46 and related entries (UniProt P14621)	0.973 ± 0.028
E7EMM4 and related entries (UniProt Q13510)	0.995 ± 0.024
F8VQQ3 and related entries (UniProt Q9HB07)	1.04 ± 0.015
E7EN32 and related entries (UniProt O00255)	1.02 ± 0.023
E9PF32 and related entries (UniProt A2RUS2)	0.995 ± 0.066
E7EXA6 and related entries (UniProt Q8WVB6)	1.01 ± 0.019
E7EMS2 and related entries (UniProt P61916)	0.932 ± 0.029
E7EVA0 and related entries (UniProt P27816)	0.974 ± 0.011

Same assay, conditions: concentration: 0.5mM

Target	NP40-soluble protein abundance
F5H8D7 and related entries (UniProt P18887)	0.992 ± 0.052
G3V167 and related entries (UniProt Q9UGN5)	0.989 ± 0.075
F8VX04 and related entries (UniProt Q9H2H9)	1.13 ± 0.24
F5H5D3 and related entries (UniProt Q9BQE3)	1.01 ± 0.044
F5H3X1 and related entries (UniProt Q6NXE6)	0.979 ± 0.04
E7EUU4 and related entries (UniProt Q04637)	1.04 ± 0.038
F8W9X7 and related entries (UniProt Q567U6)	0.976 ± 0.026
F5H226 and related entries (UniProt P08397)	0.9918 ± 0.0047
E7ET07 and related entries (UniProt Q9NXR8)	1.014 ± 0.0094
E9PJD7 and related entries (UniProt P0DTL6)	0.9892 ± 0.0024
E5RI98 and related entries (UniProt P06748)	0.998 ± 0.041
E7ESL0 and related entries (UniProt Q9NWU5)	1 ± 0.074
F6S7C4 and related entries (UniProt Q8NEM7)	1 ± 0.041
F5H8H2 and related entries (UniProt Q03426)	0.958 ± 0.08
E9PHM2 and related entries (UniProt Q15031)	0.981 ± 0.024
F8WA39 and related entries (UniProt Q13613)	1.02 ± 0.011
F6VUX8 and related entries (UniProt Q9HC77)	1.03 ± 0.015
F5GXX6 and related entries (UniProt Q9NQ89)	0.9697 ± 0.0083
F5H1F7 and related entries (UniProt P29375)	1.011 ± 0.01

Target	NP40-soluble protein abundance
F8W1T6 and related entries (UniProt Q15434)	1.03 ± 0.014
E9PF18 and related entries (UniProt Q16836)	1.03 ± 0.03
F5H5U2 and related entries (UniProt Q8NHQ9)	1.02 ± 0.02
E9PIN3 and related entries (UniProt Q9UBU9)	1.01 ± 0.034
F8VQE1 and related entries (UniProt Q9UHB6)	1.12 ± 0.017
E7EX90 and related entries (UniProt Q14203)	1 ± 0.046
E9PPW7 and related entries (UniProt O00217)	0.98 ± 0.013
F2Z2U4 and related entries (UniProt Q9Y4A5)	1.01 ± 0.013
F2Z388 and related entries (UniProt P42766)	1.04 ± 0.035
E7EMD6 and related entries (UniProt O43572)	0.987 ± 0.034
E7ETU7 and related entries (UniProt P09001)	0.973 ± 0.1
E9PF46 and related entries (UniProt P14621)	1.04 ± 0.045
E7EMM4 and related entries (UniProt Q13510)	0.989 ± 0.022
F8VQQ3 and related entries (UniProt Q9HB07)	1.01 ± 0.024
E7EN32 and related entries (UniProt O00255)	1.08 ± 0.036
E9PF32 and related entries (UniProt A2RUS2)	0.979 ± 0.051
E7EXA6 and related entries (UniProt Q8WVB6)	0.989 ± 0.023
E7EMS2 and related entries (UniProt P61916)	1.03 ± 0.058
E7EVA0 and related entries (UniProt P27816)	1.03 ± 0.069

From the supplement of paper PMC6411743
